Experimental data from patent US9469650B2, “Melampomagnolide B derivatives” (BOARD OF TRUSTEES OF THE UNIVERSITY OF ARKANSAS, priority 2013, dated 2016).
At least one read-out could not be matched to a standard name with certainty.

Experiments:
PC-3 = experiment: panel of 60 human tumor cell lines, growth inhibition (Prostate Cancer)
SF-268 = experiment: panel of 60 human tumor cell lines, growth inhibition (CNS Cancer)
SK-MEL-5 = experiment: panel of 60 human tumor cell lines, growth inhibition (Melanoma)
CCRF-CEM = experiment: panel of 60 human tumor cell lines, growth inhibition (Leukemia)
SR = experiment: as above
SF-539 = experiment: panel of 60 human tumor cell lines, growth inhibition (CNS Cancer)
SNB-19 = experiment: as above
MDA-MB-231/ATCC = experiment: panel of 60 human tumor cell lines, growth inhibition (Breast Cancer)
UO-31 = experiment: panel of 60 human tumor cell lines, growth inhibition (Renal Cancer)

C=C1C(=O)O[C@H]2[C@H]1CC/C(COC(=O)OCCN(C)C)=C\CC[C@@]1(C)O[C@@H]21 [JVM 2-35]
Percent Growth (PC-3; Log10 Concentration −4.0): −79% | Percent Growth (PC-3; Log10 Concentration −5.0): 72% | Percent Growth (PC-3; Log10 Concentration −6.0): 86% | Percent Growth (PC-3; Log10 Concentration −7.0): 91% | Percent Growth (PC-3; Log10 Concentration −8.0): 95% | Percent Growth (SF-268; Log10 Concentration −4.0): −71% | Percent Growth (SF-268; Log10 Concentration −5.0): 59% | Percent Growth (SF-268; Log10 Concentration −6.0): 92% | Percent Growth (SF-268; Log10 Concentration −7.0): 92% | Percent Growth (SF-268; Log10 Concentration −8.0): 93% | Percent Growth (SK-MEL-5; 8K-MEL-5, Log10 Concentration −4.0): −90% | Percent Growth (SK-MEL-5; 8K-MEL-5, Log10 Concentration −5.0): 59% | Percent Growth (SK-MEL-5; 8K-MEL-5, Log10 Concentration −6.0): 91% | Percent Growth (SK-MEL-5; 8K-MEL-5, Log10 Concentration −7.0): 99% | Percent Growth (SK-MEL-5; 8K-MEL-5, Log10 Concentration −8.0): 98% | Percent Growth (CCRF-CEM; Log10 Concentration −4.0): −44% | Percent Growth (CCRF-CEM; Log10 Concentration −5.0): −16% | Percent Growth (CCRF-CEM; Log10 Concentration −6.0): 81% | Percent Growth (CCRF-CEM; Log10 Concentration −7.0): 96% | Percent Growth (CCRF-CEM; Log10 Concentration −8.0): 93% | Percent Growth (SR; Log10 Concentration −4.0): −45% | Percent Growth (SR; Log10 Concentration −5.0): 4% | Percent Growth (SR; Log10 Concentration −6.0): 74% | Percent Growth (SR; Log10 Concentration −7.0): 77% | Percent Growth (SR; Log10 Concentration −8.0): 80% | Percent Growth (SF-539; Log10 Concentration −4.0): −93% | Percent Growth (SF-539; Log10 Concentration −5.0): 19% | Percent Growth (SF-539; Log10 Concentration −6.0): 95% | Percent Growth (SF-539; Log10 Concentration −7.0): 91% | Percent Growth (SF-539; Log10 Concentration −8.0): 99% | Percent Growth (SNB-19; Log10 Concentration −4.0): −20% | Percent Growth (SNB-19; Log10 Concentration −5.0): 76% | Percent Growth (SNB-19; Log10 Concentration −6.0): 90% | Percent Growth (SNB-19; Log10 Concentration −7.0): 93% | Percent Growth (SNB-19; Log10 Concentration −8.0): 95% | Percent Growth (MDA-MB-231/ATCC; Log10 Concentration −4.0): −79% | Percent Growth (MDA-MB-231/ATCC; Log10 Concentration −5.0): 38% | Percent Growth (MDA-MB-231/ATCC; Log10 Concentration −6.0): 89% | Percent Growth (MDA-MB-231/ATCC; Log10 Concentration −7.0): 99% | Percent Growth (MDA-MB-231/ATCC; Log10 Concentration −8.0): 101% | Percent Growth (UO-31; Log10 Concentration −4.0): −88% | Percent Growth (UO-31; Log10 Concentration −5.0): 33% | Percent Growth (UO-31; Log10 Concentration −6.0): 84% | Percent Growth (UO-31; Log10 Concentration −7.0): 85% | Percent Growth (UO-31; Log10 Concentration −8.0): 84%

C=C1C(=O)O[C@H]2[C@H]1CC/C(COC(=O)OC)=C\CC[C@@]1(C)O[C@@H]21 [JVM 2-40]
Percent Growth (PC-3; Log10 Concentration −4.0): −83% | Percent Growth (PC-3; Log10 Concentration −5.0): 61% | Percent Growth (PC-3; Log10 Concentration −6.0): 92% | Percent Growth (PC-3; Log10 Concentration −7.0): 93% | Percent Growth (PC-3; Log10 Concentration −8.0): 95% | Percent Growth (SF-268; Log10 Concentration −4.0): −74% | Percent Growth (SF-268; Log10 Concentration −5.0): 44% | Percent Growth (SF-268; Log10 Concentration −6.0): 91% | Percent Growth (SF-268; Log10 Concentration −7.0): 93% | Percent Growth (SF-268; Log10 Concentration −8.0): 94% | Percent Growth (SK-MEL-5; SK-MEL-5, Log10 Concentration −4.0): −90% | Percent Growth (SK-MEL-5; SK-MEL-5, Log10 Concentration −5.0): 45% | Percent Growth (SK-MEL-5; SK-MEL-5, Log10 Concentration −6.0): 89% | Percent Growth (SK-MEL-5; SK-MEL-5, Log10 Concentration −7.0): 95% | Percent Growth (SK-MEL-5; SK-MEL-5, Log10 Concentration −8.0): 98% | Percent Growth (CCRF-CEM; Log10 Concentration −4.0): −50% | Percent Growth (CCRF-CEM; Log10 Concentration −5.0): −18% | Percent Growth (CCRF-CEM; Log10 Concentration −6.0): 64% | Percent Growth (CCRF-CEM; Log10 Concentration −7.0): 95% | Percent Growth (CCRF-CEM; Log10 Concentration −8.0): 93% | Percent Growth (SR; Log10 Concentration −4.0): −38% | Percent Growth (SR; Log10 Concentration −5.0): 4% | Percent Growth (SR; Log10 Concentration −6.0): 75% | Percent Growth (SR; Log10 Concentration −7.0): 85% | Percent Growth (SR; Log10 Concentration −8.0): 90% | Percent Growth (SF-539; Log10 Concentration −4.0): −92% | Percent Growth (SF-539; Log10 Concentration −5.0): −5% | Percent Growth (SF-539; Log10 Concentration −6.0): 88% | Percent Growth (SF-539; Log10 Concentration −7.0): 86% | Percent Growth (SF-539; Log10 Concentration −8.0): 91% | Percent Growth (SNB-19; Log10 Concentration −4.0): −86% | Percent Growth (SNB-19; Log10 Concentration −5.0): 70% | Percent Growth (SNB-19; Log10 Concentration −6.0): 88% | Percent Growth (SNB-19; Log10 Concentration −7.0): 95% | Percent Growth (SNB-19; Log10 Concentration −8.0): 94% | Percent Growth (MDA-MB-231/ATCC; Log10 Concentration −4.0): −87% | Percent Growth (MDA-MB-231/ATCC; Log10 Concentration −5.0): 25% | Percent Growth (MDA-MB-231/ATCC; Log10 Concentration −6.0): 81% | Percent Growth (MDA-MB-231/ATCC; Log10 Concentration −7.0): 98% | Percent Growth (MDA-MB-231/ATCC; Log10 Concentration −8.0): 99% | Percent Growth (UO-31; Log10 Concentration −4.0): −90% | Percent Growth (UO-31; Log10 Concentration −5.0): 16% | Percent Growth (UO-31; Log10 Concentration −6.0): 85% | Percent Growth (UO-31; Log10 Concentration −7.0): 88% | Percent Growth (UO-31; Log10 Concentration −8.0): 86%
